# Results are given in words; binding and its absence hold for the method and conditions named. Binding seen in cells or lysates may run through a third protein. These calls come from enrichment with a bait or labelling near it, and not all partners need be listed. Tags and fused reporters may be left off the sequences shown.
# Sequences of proteins named here, by UniProt entry; tags and fusion partners are left off.
# UniProt Q13547: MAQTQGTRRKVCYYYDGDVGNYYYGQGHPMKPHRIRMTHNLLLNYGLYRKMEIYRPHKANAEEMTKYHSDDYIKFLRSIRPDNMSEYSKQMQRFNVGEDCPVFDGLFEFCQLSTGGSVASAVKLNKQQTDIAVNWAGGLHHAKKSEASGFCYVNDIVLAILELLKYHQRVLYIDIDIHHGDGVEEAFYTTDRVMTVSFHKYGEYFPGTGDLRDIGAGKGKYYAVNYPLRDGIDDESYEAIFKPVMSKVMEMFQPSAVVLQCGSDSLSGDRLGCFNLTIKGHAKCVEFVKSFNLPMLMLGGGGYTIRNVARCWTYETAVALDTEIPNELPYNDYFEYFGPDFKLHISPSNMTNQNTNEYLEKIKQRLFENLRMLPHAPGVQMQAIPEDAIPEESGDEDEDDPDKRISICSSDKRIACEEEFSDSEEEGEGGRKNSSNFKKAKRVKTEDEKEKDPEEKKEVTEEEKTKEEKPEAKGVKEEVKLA
# Biological target: HDAC1 (endogenous or tagged not stated; immunoprecipitates for mass spectrometry and co-IP with the PFK isoforms) (human) (UniProt Q13547)
# Test: affinity purification with mass spectrometry; mass spectrometry of HDAC1 immunoprecipitates
binder,measurement,value
"PFKL (endogenous or tagged not stated; immunoprecipitates for mass spectrometry, co-IP of the PFK isoforms, purified PFKL added to HDAC1) (enzyme, UniProt P17858 1-780) MAAVDLEKLRASGAGKAIGVLTSGGDAQGMNAAVRAVTRMGIYVGAKVFLIYEGYEGLVEGGENIKQANWLSVSNIIQLGGTIIGSARCKAFTTREGRRAAAYNLVQHGITNLCVIGGDGSLTGANIFRSEWGSLLEELVAEGKISETTARTYSHLNIAGLVGSIDNDFCGTDMTIGTDSALHRIMEVIDAITTTAQSHQRTFVLEVMGRHCGYLALVSALASGADWLFIPEAPPEDGWENFMCERLGETRSRGSRLNIIIIAEGAIDRNGKPISSSYVKDLVVQRLGFDTRVTVLGHVQRGGTPSAFDRILSSKMGMEAVMALLEATPDTPACVVTLSGNQSVRLPLMECVQMTKEVQKAMDDKRFDEATQLRGGSFENNWNIYKLLAHQKPPKEKSNFSLAILNVGAPAAGMNAAVRSAVRTGISHGHTVYVVHDGFEGLAKGQVQEVGWHDVAGWLGRGGSMLGTKRTLPKGQLESIVENIRIYGIHALLVVGGFEAYEGVLQLVEARGRYEELCIVMCVIPATISNNVPGTDFSLGSDTAVNAAMESCDRIKQSASGTKRRVFIVETMGGYCGYLATVTGIAVGADAAYVFEDPFNIHDLKVNVEHMTEKMKTDIQRGLVLRNEKCHDYYTTEFLYNLYSSEGKGVFDCRTNVLGHLQQGGAPTPFDRNYGTKLGVKAMLWLSEKLREVYRKGRVFANAPDSACVIGLKKKAVAFSPVTELKKDTDFEHRMPREQWWLSLRLMLKMLAQYRISMAAYVSGELEHVTRRTLSMDKGF",binding,binds

# — paper PMC12518634, “The noncanonical function of liver-type phosphofructokinase potentiates the efficacy of HDAC inhibitors in cancer” (Signal Transduction and Targeted Therapy, 2025)
